Data on 30 molecules can be found in the supplement of paper PMC10735217.

The assay concerns HEK293A TEAD-LUC reporter. Description: TEAD-luciferase reporter activity (YAP activation), robust Z score vs plate; higher = stronger YAP/TEAD activation. The conditions noted are these: 24 h. A general note: A reporter such as luciferase makes a cellular process visible.

Structures are written as SMILES. Structures can show the parent of a compound that is named as a salt. Some of the results follow. This data set is noisy: repeats of one test often differ as much as different tests do.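 In a drug-repurposing library screen, luminescence reads luciferase driven by eight TEAD-binding elements, stably integrated into human kidney-derived cells. Compounds scoring over five robust Z scores above the plate mean are called hits.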

Regarding `CN1Cc2c(N)cccc2C(c2ccccc2)C1` (stereo not given) [Nomifensine maleate], the TEAD-luciferase reporter activity by setting is: (compound concentration: 200 nM) inactive: -2.98; (compound concentration: 2 uM) inactive: -2.46; (compound concentration: 10 uM) inactive: -0.937.

In the case of `CC(C(=O)O)c1ccc2oc(-c3ccc(Cl)cc3)nc2c1` (stereo not given) [Benoxaprofen], the TEAD-luciferase reporter activity (compound concentration: 200 nM) was inactive: 0.832, the TEAD-luciferase reporter activity (compound concentration: 2 uM) was inactive: -2.79 and the TEAD-luciferase reporter activity (compound concentration: 10 uM) was inactive: -4.13.

For the molecule `O=C1CC[C@]2(c3ccc(Cl)c(Cl)c3)O[C@H](COc3ccc(Cl)cc3)CN12`, the TEAD-luciferase reporter activity by setting is: (compound concentration: 200 nM) inactive: -0.109; (compound concentration: 2 uM) inactive: -1.26; (compound concentration: 10 uM) inactive: -0.136.

In the case of `Cc1ccc2c(Br)cc(Br)c(OC(=O)c3cccc4ccccc34)c2n1`, the TEAD-luciferase reporter activity is inactive: -0.511 (compound concentration: 200 nM), inactive: -0.436 (compound concentration: 2 uM) and inactive: 0.653 (compound concentration: 10 uM).

Consider `CSc1nc(Nc2ccccc2)c2cccnc2n1`, for which the TEAD-luciferase reporter activity is inactive: 0.765 (compound concentration: 200 nM), inactive: 0.335 (compound concentration: 2 uM) and inactive: -1.33 (compound concentration: 10 uM).

For `Cc1cc(C)cc([C@@H]2CCCN2Cc2ccc(Oc3ccc(C(N)=O)cc3F)cc2)c1`, the TEAD-luciferase reporter activity (compound concentration: 200 nM) is inactive: -0.799, the TEAD-luciferase reporter activity (compound concentration: 2 uM) is inactive: -0.952 and the TEAD-luciferase reporter activity (compound concentration: 10 uM) is inactive: -1.21.

Regarding `CCN1CCC(=C2c3ccccc3CCc3ccccc32)C1C` (stereo not given), the TEAD-luciferase reporter activity (compound concentration: 200 nM) was inactive: -0.541, the TEAD-luciferase reporter activity (compound concentration: 2 uM) was inactive: -0.853 and the TEAD-luciferase reporter activity (compound concentration: 10 uM) was inactive: -0.84.

Take `CCOC(=O)CCC(=O)OC1C(OC2C(C)C(OC3CC(C)(OC)C(O)C(C)O3)C(C)C(=O)OC(CC)C(C)(O)C(O)C(C)C(=O)C(C)CC2(C)O)OC(C)CC1N(C)C` (stereo not given) [Eryped1264-62-6]: the TEAD-luciferase reporter activity is, setting by setting: (compound concentration: 200 nM) inactive: -0.0884; (compound concentration: 10 uM) inactive: 3.46.

On to `CCOC(=O)CCC(=O)OC1C(OC2C(C)C(OC3CC(C)(OC)C(O)C(C)O3)C(C)C(=O)OC(CC)C(C)(O)C(O)C(C)C(=O)C(C)CC2(C)O)OC(C)CC1N(C)C` (stereo not given) [Erythromycin ethylsuccinate], for which the TEAD-luciferase reporter activity (compound concentration: 2 uM) is inactive: 0.343.

With `O=C1c2cccc3cc([N+](=O)[O-])cc(c23)C(=O)N1CCN1CCCC1` [Pinafide], the TEAD-luciferase reporter activity runs as follows: (compound concentration: 200 nM) inactive: -0.742; (compound concentration: 2 uM) inactive: 0.792; (compound concentration: 10 uM) inactive: -1.12.

For `CC(=O)NC[C@H]1CN(c2ccc(N3Cc4ccncc4C3)c(F)c2)C(=O)O1`, the TEAD-luciferase reporter activity was inactive: -0.571 (compound concentration: 200 nM), inactive: -1.21 (compound concentration: 2 uM) and inactive: 2.01 (compound concentration: 10 uM).

For the molecule `CCN(O)CCc1ccc2c(c1)C(=O)c1ccccc1CO2`, the TEAD-luciferase reporter activity runs as follows: (compound concentration: 200 nM) inactive: 2.07; (compound concentration: 2 uM) inactive: 1.27; (compound concentration: 10 uM) inactive: 3.56.

`COc1c2ccoc2cc2oc(=O)ccc12` [5-Methoxypsoralen]: the TEAD-luciferase reporter activity runs as follows: (compound concentration: 200 nM) inactive: -0.253; (compound concentration: 2 uM) inactive: 0.357; (compound concentration: 10 uM) inactive: -0.161.

Turning to `CCCCCCCCCCCCCCCCCCOP(=O)(O)OC1CC[N+](C)(C)CC1` [perifosine], the TEAD-luciferase reporter activity (compound concentration: 10 uM) was inactive: 1.1.

Regarding `CCNCc1coc2ccc(S(=O)(=O)N(CC(C)C)C[C@@H](O)[C@H](Cc3ccccc3)NC(=O)OC3CO[C@H]4OCC[C@@H]34)cc12` (stereo not given in full), the TEAD-luciferase reporter activity runs as follows: (compound concentration: 200 nM) inactive: -0.159; (compound concentration: 2 uM) inactive: -0.257; (compound concentration: 10 uM) inactive: -1.05.

Regarding `Cn1c(=O)c2c(ncn2CCNCC(O)c2ccc(O)c(O)c2)n(C)c1=O` (stereo not given), the TEAD-luciferase reporter activity is, setting by setting: (compound concentration: 200 nM) inactive: 0.292; (compound concentration: 2 uM) inactive: -0.476; (compound concentration: 10 uM) inactive: -0.27.

For `CCCCCCCCC(CO)CCCCCC` (stereo not given), the TEAD-luciferase reporter activity was inactive: -0.0533 (compound concentration: 200 nM), inactive: -1.3 (compound concentration: 2 uM) and inactive: -0.539 (compound concentration: 10 uM).

Consider `CCOC(=O)C(C)CC(C)C(=O)N1c2ccccc2C[C@H]1C(=O)O` (stereo not given in full), for which the TEAD-luciferase reporter activity by setting is: (compound concentration: 200 nM) inactive: -0.888; (compound concentration: 2 uM) inactive: 0.774; (compound concentration: 10 uM) inactive: 4.19.

With `CCOC(=O)Oc1ccc(/C=C/C=C/C(=O)NCCN2CCC(OC(c3ccccc3)c3ccccc3)CC2)cc1OC`, the TEAD-luciferase reporter activity reads like this: (compound concentration: 200 nM) inactive: -0.584; (compound concentration: 2 uM) inactive: -0.361; (compound concentration: 10 uM) inactive: -0.128.

Regarding `O=C1NC2(CCN(Cc3ccc(C(F)(F)F)cc3)CC2)Oc2ccccc21`, the TEAD-luciferase reporter activity is, setting by setting: (compound concentration: 200 nM) inactive: -0.634; (compound concentration: 10 uM) inactive: 3.7.

On to `CC1(CCCc2cc(=O)oc3[nH]c(=O)[nH]c(=O)c23)CC1`, for which the TEAD-luciferase reporter activity (compound concentration: 200 nM) was inactive: 1.98, the TEAD-luciferase reporter activity (compound concentration: 2 uM) was inactive: -1.66 and the TEAD-luciferase reporter activity (compound concentration: 10 uM) was inactive: -0.403.

Regarding `OCCN1CCN(CCCN2c3ccccc3Sc3ccc(C(F)(F)F)cc32)CC1` [fluphenazine hydrochloride, Corridor Pharmaceuticals-1], for the setting “compound concentration: 2 uM”, the TEAD-luciferase reporter activity is inactive: -0.41.

With `OCCN1CCN(CCCN2c3ccccc3Sc3ccc(C(F)(F)F)cc32)CC1`, the TEAD-luciferase reporter activity was inactive: -0.526 (compound concentration: 200 nM) and inactive: 0.46 (compound concentration: 10 uM).

Consider `CN1C(=O)C(=C(N)c2ccccc2)C(=O)C=C1c1ccccc1`, for which the TEAD-luciferase reporter activity is, setting by setting: (compound concentration: 200 nM) inactive: -0.0439; (compound concentration: 2 uM) inactive: -0.495; (compound concentration: 10 uM) inactive: -1.08.

As for `CCCCC[C@H](O)/C=C/[C@@H]1[C@H]2C/C(=C/CCCC(=O)O)C[C@H]2C[C@H]1O` [Carbacyclin], the TEAD-luciferase reporter activity was inactive: -1.66 (compound concentration: 200 nM) and inactive: 0.218 (compound concentration: 10 uM).

With `CCN(CC)Cc1ccc2cc(COC(=O)Nc3ccc(C(=O)NO)cc3)ccc2c1` [ITF2357 (Givinostat)], the TEAD-luciferase reporter activity reads like this: (compound concentration: 200 nM) active: 10.6; (compound concentration: 10 uM) active: 34.4.

Turning to `CCN(CC)Cc1ccc2cc(COC(=O)Nc3ccc(C(=O)NO)cc3)ccc2c1` [Givinostat hydrochloride], where the note is “compound concentration: 2 uM”, the TEAD-luciferase reporter activity was active: 21.7.

As to `O=C(c1cccc(Cl)c1)N1CCC(n2c(=O)[nH]c3ccccc32)CC1`, the TEAD-luciferase reporter activity by setting is: (compound concentration: 200 nM) inactive: -0.657; (compound concentration: 10 uM) inactive: 1.2.

For `Clc1ccc2c(N3CCN(CCCN4CCN(c5ccnc6cc(Cl)ccc56)CC4)CC3)ccnc2c1` [Piperaquine], the TEAD-luciferase reporter activity runs as follows: (compound concentration: 200 nM) inactive: 0.045; (compound concentration: 10 uM) inactive: 0.56.

With `Nc1nc(=O)n([C@@H]2C=C[C@H](CO)O2)cc1F`, the TEAD-luciferase reporter activity by setting is: (compound concentration: 200 nM) inactive: 0.464; (compound concentration: 2 uM) inactive: -1.03; (compound concentration: 10 uM) inactive: 2.64.
